For the data set, the system named is intestinal microbiome. Description: Gut microbiome, 16s rRNA gene-based metagenomics analysis of feces. It counts as in vivo, BALB/c mice. The protocol:
Six-week-old BALB/c female mice were used for this study (6 mice for each group). Each drug was administered orally at 30 mg/kg once daily for 7 days. Stool was collected, and 16 rRNA gene-based metagenomics analysis was performed. Corn oil was used as the vehicle. The drug-free group received corn oil only. This animal experiment was conducted with the approval of the IACUC of the Soonchunhyang University (approval number: SCH21-0011). Microbiome analysis of collected feces was carried out as previously described with some modifications. Total DNA was extracted from the stool using the QIAamp DNA stool mini kit (Qiagen, Germany) after mechanical disruption using lysing matrix B tubes (MP Biomedicals, USA). V4 region of 16S RNA gene was amplified from extracted DNA with the following primers: forward primer ([…]) and reverse primer ([…]). PCR was performed using the Kappa HiFi hot start kit (KAPA Biosystems, USA) for 16s gene amplification and library preparation. A dsDNA HS assay kit and Qubit 4 fluorimeter (Invitrogen, USA) were used for DNA quantification. After each step, quality was checked using Agilent High Sensitivity DNA Kit and Agilent Bioanalyzer 2100 (Agilent Technologies, USA). Clean-up was performed using AMPure XP beads (Beckman Coulter, UK). The metagenomic library was prepared using a Nextera XT DNA Library Prep Kit (Illumina, USA) and loaded into an iSeq-100 reagent cartridge (Illumina, USA) together with a PhiX Control library (Illumina, USA). A 300-bp paired-end sequencing was performed on an iSeq-100 platform (Illumina, USA). Sequencing data were analyzed using the EzBioCloud server (Chunlab, Korea).

The mark [1] stands for this setting: after drug treatment, fraction of class.
Where [2] appears, read: after drug treatment, fraction of phylum.
Where [3] appears, read: gut microbiota after drug treatment, box plot data.

With `NNC(=O)c1ccncc1` [INH, isoniazid, reference compound], under setting [1], the “Gut microbiota, Class Actinobacteria_c” value amounted to 0.128; the “Gut microbiota, Class Bacilli” value is listed as 0.184; the “Gut microbiota, Class Bacteroidia” value is recorded as 0.375; the “Gut microbiota, Class Betaproteobacteria” value came to 0.000. For the same compound, under setting [1], the “Gut microbiota, Class Clostridia” value stood at 0.218; the “Gut microbiota, Class Deferribacteres_c” value came to 0.000; the “Gut microbiota, Class ETC(<1%)” value was 0.013; the “Gut microbiota, Class Epsilonproteobacteria” value was found to be 0.066. Besides, under setting [1], the “Gut microbiota, Class Gammaproteobacteria” value came to 0.016. Moreover, under setting [2], the “Gut microbiota, Phylum Actinobacteria” value amounted to 0.130; the “Gut microbiota, Phylum Bacteroidetes” value turned out to be 0.375; the “Gut microbiota, Phylum Deferribacteres” value is 0.000; the “Gut microbiota, Phylum ETC(<1%)” value is 0.00667. Further, under setting [2], the “Gut microbiota, Phylum Firmicutes” value is listed as 0.403 and the “Gut microbiota, Phylum Proteobacteria” value was 0.086. Further, under setting [3], the “Phylogenetic diversity, High” value stood at 3.5; the “Phylogenetic diversity, Low” value is on record as 103; the “Phylogenetic diversity, Median” value was 44; the “Phylogenetic diversity, Q1(25%)” value came to 44. For the same compound, the “Phylogenetic diversity, Q3(75%)” value under setting [3] is 3.5.
On to `CO[C@H]1/C=C/O[C@@]2(C)Oc3c(C)c(O)c4c(O)c(c(/C=N/N5CCN(C)CC5)c(O)c4c3C2=O)NC(=O)/C(C)=C\C=C\[C@H](C)[C@H](O)[C@@H](C)[C@@H](O)[C@@H](C)[C@H](OC(C)=O)[C@@H]1C` [RIF, rifampicin, reference compound], for which, for the setting “mouse, in vivo”, the “Gut microbiota, Class Actinobacteria_c” value amounted to 0.000; the “Gut microbiota, Class Bacilli” value is recorded as 0.000; the “Gut microbiota, Class Bacteroidia” value was 0.844; the “Gut microbiota, Class Betaproteobacteria” value is 0.000. Moreover, for the setting “mouse, in vivo”, the “Gut microbiota, Class Clostridia” value was determined as 0.018; the “Gut microbiota, Class Deferribacteres_c” value is reported as 0.000; the “Gut microbiota, Class ETC(<1%)” value was found to be 0.018; the “Gut microbiota, Class Epsilonproteobacteria” value stood at 0.040. Under “mouse, in vivo”, the “Gut microbiota, Class Gammaproteobacteria” value is 0.079; the “Gut microbiota, Phylum Actinobacteria” value is listed as 0.000; the “Gut microbiota, Phylum Bacteroidetes” value stood at 0.844; the “Gut microbiota, Phylum Deferribacteres” value worked out at 0.000. In addition, under “mouse, in vivo”, the “Gut microbiota, Phylum ETC(<1%)” value is reported as 0.012; the “Gut microbiota, Phylum Firmicutes” value was found to be 0.024; the “Gut microbiota, Phylum Proteobacteria” value stood at 0.120; the “Phylogenetic diversity, High” value is recorded as 27. Besides, where the note is “mouse, in vivo”, the “Phylogenetic diversity, Low” value is 64; the “Phylogenetic diversity, Median” value was found to be 16; the “Phylogenetic diversity, Q1(25%)” value is reported as 9; the “Phylogenetic diversity, Q3(75%)” value is listed as 13.
On to `CN[C@H](CC(C)C)C(=O)N[C@H]1C(=O)N[C@@H](CC(N)=O)C(=O)N[C@H]2C(=O)N[C@H]3C(=O)N[C@H](C(=O)N[C@H](C(=O)O)c4cc(O)cc(O)c4-c4cc3ccc4O)[C@H](O)c3ccc(c(Cl)c3)Oc3cc2cc(c3O[C@@H]2O[C@H](CO)[C@@H](O)[C@H](O)[C@H]2O[C@H]2C[C@](C)(N)[C@H](O)[C@H](C)O2)Oc2ccc(cc2Cl)[C@H]1O` [VAN, vancomycin], for which, under setting [1], the “Gut microbiota, Class Actinobacteria_c” value is listed as 0.000; the “Gut microbiota, Class Bacilli” value was 0.053; the “Gut microbiota, Class Bacteroidia” value is 0.000; the “Gut microbiota, Class Betaproteobacteria” value is on record as 0.117. In addition, under setting [1], the “Gut microbiota, Class Clostridia” value is 0.000; the “Gut microbiota, Class Deferribacteres_c” value was 0.000; the “Gut microbiota, Class ETC(<1%)” value is 0.0074; the “Gut microbiota, Class Epsilonproteobacteria” value amounted to 0.000. Under setting [1], the “Gut microbiota, Class Gammaproteobacteria” value came out at 0.823. In addition, under setting [2], the “Gut microbiota, Phylum Actinobacteria” value is 0.000; the “Gut microbiota, Phylum Bacteroidetes” value worked out at 0.000; the “Gut microbiota, Phylum Deferribacteres” value worked out at 0.000; the “Gut microbiota, Phylum ETC(<1%)” value is listed as 0.0038. Further, under setting [2], the “Gut microbiota, Phylum Firmicutes” value is listed as 0.053 and the “Gut microbiota, Phylum Proteobacteria” value was 0.943. Also, under setting [3], the “Phylogenetic diversity, High” value is given as 7; the “Phylogenetic diversity, Low” value is recorded as 36; the “Phylogenetic diversity, Median” value was determined as 6; the “Phylogenetic diversity, Q1(25%)” value is 2. Further, the “Phylogenetic diversity, Q3(75%)” value under setting [3] came out at 1.

These data come from PMC9154192 (PLoS Biology, 2022).
